According to patent publication US6844168:
Results are given in words; binding and its absence hold for the method and conditions named. Some results given as binding are weak or reduced against the parent protein; the word gives no strength.

The chains behind the UniProt entries cited, without tags or fusion partners. Where a name states a change or a piece, a line headed by the entry shows the natural chain unless it says otherwise. Residues count along the entry.
UniProt P09038, residues 134-288: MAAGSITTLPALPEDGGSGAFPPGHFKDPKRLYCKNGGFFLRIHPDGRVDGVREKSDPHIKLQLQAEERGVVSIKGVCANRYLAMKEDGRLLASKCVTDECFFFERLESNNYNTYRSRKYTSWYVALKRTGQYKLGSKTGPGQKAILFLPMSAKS
UniProt P11362: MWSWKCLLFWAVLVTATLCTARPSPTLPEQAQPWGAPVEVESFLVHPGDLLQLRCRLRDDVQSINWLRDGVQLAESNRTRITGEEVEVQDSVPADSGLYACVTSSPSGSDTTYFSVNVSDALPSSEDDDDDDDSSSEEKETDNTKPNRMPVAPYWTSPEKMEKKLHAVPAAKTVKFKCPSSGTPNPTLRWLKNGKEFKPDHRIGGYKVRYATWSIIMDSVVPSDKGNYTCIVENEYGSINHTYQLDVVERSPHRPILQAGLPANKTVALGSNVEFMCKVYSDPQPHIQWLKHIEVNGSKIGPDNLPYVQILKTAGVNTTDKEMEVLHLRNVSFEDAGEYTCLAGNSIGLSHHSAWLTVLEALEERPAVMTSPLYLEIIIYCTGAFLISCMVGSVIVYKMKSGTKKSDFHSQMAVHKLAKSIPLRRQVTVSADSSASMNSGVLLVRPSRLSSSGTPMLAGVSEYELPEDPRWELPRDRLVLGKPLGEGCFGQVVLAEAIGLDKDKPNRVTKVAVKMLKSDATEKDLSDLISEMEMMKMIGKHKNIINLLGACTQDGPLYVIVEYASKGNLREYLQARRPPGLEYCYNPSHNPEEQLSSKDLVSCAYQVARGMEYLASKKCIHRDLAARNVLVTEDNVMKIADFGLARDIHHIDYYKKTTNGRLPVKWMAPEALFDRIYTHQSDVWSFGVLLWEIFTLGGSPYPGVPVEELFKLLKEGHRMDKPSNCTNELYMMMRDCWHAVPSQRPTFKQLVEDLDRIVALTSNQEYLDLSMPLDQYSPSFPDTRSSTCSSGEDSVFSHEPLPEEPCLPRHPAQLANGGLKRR

Molecular target: Human basic FGF (recombinant, produced in yeast) (human) (UniProt P09038)
Assay: radioreceptor assay on BHK cells with 125I-basic FGF

Substance: EC-FGF receptor (extracellular region of the human FGF receptor flg 5, amino acids 1-374, expressed in baculovirus-infected Sf9 cells) (from UniProt P11362 22-376)
- binding: binds
